Experimental data: PubChem BioAssay AID1259289 (Sanger Institute, 2017)
Screen: 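Kinases that bowel cancer cells need to survive, with or without BYL719, cetuximab, trametinib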 (primary screen). System: human LS513 colorectal cancer cells. Knock-down reagent: siRNA pool against human genes. Conditions: anchor drug BYL719 at 1 µM, cetuximab at 5 µg/ml or trametinib at 10 nM, or DMSO vehicle alone; exposure time not given. Read-out: 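Survival versus non-targeting pool for each arm averaged over replicates, robust z-score in the arm with DMSO only, and synergy scores for BYL719, cetuximab or trametinib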. Reading the numbers: robust z-score, siRNA alone (DMSO): higher = more viable cells; strongly negative means essential; viability with DMSO vs control: higher = more viable cells; synergy score with BYL719: higher = stronger combined killing with BYL719; synergy score with cetuximab: higher = stronger combined killing with cetuximab; synergy score with trametinib: higher = stronger combined killing with trametinib. Rule for the call: 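Called essential when silencing alone under DMSO gives a robust z-score below -3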. Calls: active = essential (knock-down alone); inactive = not essential.
In all, the deposit lists 794 reagents; below is a part drawn at random. 16 of all reagents (2%) count as active. 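Active marks cell loss from silencing alone; drug synergy shows only in the synergy scores, not the calls.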 Viability is capped at 1. Reagent sequences are not shown. Not given: the amount of reagent, the time to read-out.

| target | robust z-score, siRNA alone (DMSO) | viability with DMSO vs control (fraction of control) | synergy score with BYL719 | synergy score with cetuximab | synergy score with trametinib | activity call |
| --- | --- | --- | --- | --- | --- | --- |
| SRC (SRC proto-oncogene, non-receptor tyrosine kinase) | 0.561 | 1 | 0.0278 | 0.0365 | 0.00498 | inactive |
| CRIM1 (cysteine rich transmembrane BMP regulator 1) | 0.561 | 1 | -0.0663 | 0.142 | 0.0941 | inactive |
| NAGK (N-acetylglucosamine kinase) | -2.14 | 0.616 | -0.0574 | -0.0501 | -0.0257 | inactive |
| ADGRL2 (adhesion G protein-coupled receptor L2) | 0.405 | 0.978 | 0.138 | 0.197 | 0.0172 | inactive |
| PCK2 (phosphoenolpyruvate carboxykinase 2, mitochondrial) | 0.561 | 1 | -0.134 | -0.0968 | 0.0678 | inactive |
| PRKCZ (protein kinase C zeta) | -2.06 | 0.628 | -0.152 | -0.128 | -0.00129 | inactive |
| AMHR2 (anti-Mullerian hormone receptor type 2) | 0.561 | 1 | -0.134 | 0.224 | 0.0673 | inactive |
| AURKA (aurora kinase A) | -1.93 | 0.646 | 0.0635 | 0.0834 | 0.0344 | inactive |
| MOS (MOS proto-oncogene, serine/threonine kinase) | 0.352 | 0.97 | 0.0613 | 0.0234 | 0.0651 | inactive |
| CHD9 (chromodomain helicase DNA binding protein 9) | 0.561 | 1 | -0.0449 | -0.0968 | 0.0558 | inactive |
| PDGFRL (platelet derived growth factor receptor like) | 0.561 | 1 | -0.134 | -0.0394 | 0.00497 | inactive |
| ATM (ATM serine/threonine kinase) | 0.225 | 0.952 | 0.0856 | -0.0144 | -0.0403 | inactive |
| MVK (mevalonate kinase) | 0.561 | 1 | 0.135 | 0.07 | 0.0106 | inactive |
| NRBP2 (nuclear receptor binding protein 2) | -0.164 | 0.897 | -0.00654 | -0.00289 | 0.0079 | inactive |
| CDKN1A (cyclin dependent kinase inhibitor 1A) | 0.561 | 1 | -0.134 | -0.0968 | -0.098 | inactive |
| PRPS1L1 (phosphoribosyl pyrophosphate synthetase 1 like 1) | 0.561 | 1 | 0.0679 | 0.0044 | 0.0188 | inactive |
| NEK1 (NIMA related kinase 1) | -0.0683 | 0.911 | 0.00841 | 0.147 | 0.0208 | inactive |
| CDC42BPA (CDC42 binding protein kinase alpha) | 0.561 | 1 | -0.0566 | -0.0968 | 0.0366 | inactive |
| ROR2 (ROR family WNT receptor 2) | 0.561 | 1 | -0.117 | 0.0158 | 0.0358 | inactive |
| CAMKV (CaM kinase like vesicle associated) | 0.543 | 0.997 | 0.0568 | 0.127 | 0.054 | inactive |
| STK39 (serine/threonine kinase 39) | -1.25 | 0.742 | -0.00417 | 0.0121 | 0.027 | inactive |
| PFKFB3 (6-phosphofructo-2-kinase/fructose-2,6-biphosphatase 3) | -1.23 | 0.746 | 0.039 | -0.0518 | 0.0433 | inactive |
| TLK2 (tousled like kinase 2) | 0.561 | 1 | -0.134 | -0.0968 | -0.115 | inactive |

The list goes on (3 carried over from the part before).
| target | robust z-score, siRNA alone (DMSO) | viability with DMSO vs control (fraction of control) | synergy score with BYL719 | synergy score with cetuximab | synergy score with trametinib | activity call |
| --- | --- | --- | --- | --- | --- | --- |
| STK39 (serine/threonine kinase 39) | -1.25 | 0.742 | -0.00417 | 0.0121 | 0.027 | inactive |
| PFKFB3 (6-phosphofructo-2-kinase/fructose-2,6-biphosphatase 3) | -1.23 | 0.746 | 0.039 | -0.0518 | 0.0433 | inactive |
| TLK2 (tousled like kinase 2) | 0.561 | 1 | -0.134 | -0.0968 | -0.115 | inactive |
| PLK3 (polo like kinase 3) | 0.561 | 1 | 0.0839 | -0.0968 | -0.0461 | inactive |
| SNRK (SNF related kinase) | -0.695 | 0.822 | 0.0279 | -0.0991 | -0.0206 | inactive |
| PEAK1 (pseudopodium enriched atypical kinase 1) | -0.552 | 0.842 | 0.0823 | 0.0855 | 0.0219 | inactive |
| PHKG2 (phosphorylase kinase catalytic subunit gamma 2) | 0.561 | 1 | -0.134 | -0.0968 | -0.00522 | inactive |
| CDKN1C (cyclin dependent kinase inhibitor 1C) | 0.561 | 1 | -0.134 | -0.0968 | 0.0339 | inactive |
| CDK1 (cyclin dependent kinase 1) | 0.561 | 1 | -0.134 | -0.0968 | -0.207 | inactive |
| CRKL (CRK like proto-oncogene, adaptor protein) | 0.561 | 1 | -0.0948 | -0.00526 | 0.0227 | inactive |
| TRPM7 | 0.169 | 0.944 | 0.0734 | 0.163 | -0.0599 | inactive |
| VRK2 (VRK serine/threonine kinase 2) | 0.561 | 1 | 0.082 | 0.141 | 0.0303 | inactive |
| BLK (BLK proto-oncogene, Src family tyrosine kinase) | 0.561 | 1 | -0.134 | -0.0968 | -0.0158 | inactive |
| ERN1 (endoplasmic reticulum to nucleus signaling 1) | -1.87 | 0.655 | -0.0014 | 0.136 | 0.00192 | inactive |
| MKNK2 (MAPK interacting serine/threonine kinase 2) | 0.561 | 1 | -0.057 | 0.000755 | 0.0387 | inactive |
| MAST1 (microtubule associated serine/threonine kinase 1) | 0.561 | 1 | 0.0184 | -0.0382 | -0.0215 | inactive |
| TNIK (TRAF2 and NCK interacting kinase) | 0.561 | 1 | -0.0859 | -0.0968 | 0.0113 | inactive |
| RAF1 (Raf-1 proto-oncogene, serine/threonine kinase) | -1.82 | 0.663 | -0.0796 | 0.0296 | 0.0302 | inactive |
| FYN (FYN proto-oncogene, Src family tyrosine kinase) | 0.561 | 1 | -0.0742 | -0.0641 | 0.0284 | inactive |
| EFNA3 (ephrin A3) | 0.561 | 1 | -0.0431 | -0.0282 | -0.104 | inactive |
| LIMK1 (LIM domain kinase 1) | 0.561 | 1 | 0.422 | -0.0968 | 0.00198 | inactive |
| FXN (frataxin) | 0.561 | 1 | -0.134 | -0.0968 | -0.00549 | inactive |
| MAP4K2 (mitogen-activated protein kinase kinase kinase kinase 2) | 0.0193 | 0.923 | 0.175 | 0.0512 | 0.0324 | inactive |
| PNCK (pregnancy up-regulated nonubiquitous CaM kinase) | 0.561 | 1 | -0.134 | -0.0968 | 0.00184 | inactive |
| KCNH2 (potassium voltage-gated channel subfamily H member 2) | -0.359 | 0.869 | 0.111 | 0.229 | 0.0551 | inactive |
| ITPKB (inositol-trisphosphate 3-kinase B) | 0.561 | 1 | -0.134 | -0.0885 | -0.0103 | inactive |
| MASTL (microtubule associated serine/threonine kinase like) | -3.73 | 0.391 | -0.015 | -0.0578 | -0.0899 | active |
| NADK (NAD kinase) | -0.101 | 0.906 | -0.014 | -0.113 | -0.00726 | inactive |
| PCBP1 (poly(rC) binding protein 1) | 0.561 | 1 | -0.0675 | -0.0968 | 0.0267 | inactive |
| ULK1 (unc-51 like autophagy activating kinase 1) | 0.00495 | 0.921 | 0.0742 | 0.00898 | 0.0369 | inactive |
| PKN3 (protein kinase N3) | 0.561 | 1 | 0.0373 | 0.0809 | 0.0365 | inactive |
| HCK (HCK proto-oncogene, Src family tyrosine kinase) | 0.561 | 1 | 0.0405 | 0.0485 | 0.0326 | inactive |
| ATR (ATR checkpoint kinase) | -1.27 | 0.741 | -0.00894 | -0.162 | -0.0784 | inactive |
| AURKC (aurora kinase C) | 0.461 | 0.986 | 0.0543 | 0.0977 | 0.0482 | inactive |
| TSSK4 (testis specific serine kinase 4) | 0.561 | 1 | -0.134 | -0.0968 | -0.00414 | inactive |
| CAMK1G (calcium/calmodulin dependent protein kinase IG) | 0.561 | 1 | -0.102 | -0.0876 | 0.0732 | inactive |
| ADCK5 (aarF domain containing kinase 5) | 0.561 | 1 | -0.0879 | -0.0968 | -0.0161 | inactive |
| TTBK2 (tau tubulin kinase 2) | -1.47 | 0.712 | -0.0432 | -0.0276 | 0.0336 | inactive |
| DIS3 (DIS3 exosome endoribonuclease and 3'-5' exoribonuclease) | -1.31 | 0.734 | -0.17 | -0.283 | -0.108 | inactive |
| BRDT (bromodomain testis associated) | 0.561 | 1 | -0.134 | -0.0968 | 0.0415 | inactive |
| EPHA3 (EPH receptor A3) | -1.94 | 0.644 | 0.0895 | 0.0691 | -0.0173 | inactive |
| HIPK4 (homeodomain interacting protein kinase 4) | 0.561 | 1 | -0.134 | -0.0968 | -0.00415 | inactive |
| ATRX (ATRX chromatin remodeler) | 0.561 | 1 | -0.125 | -0.0968 | -0.168 | inactive |
